From paper PMC5766157 come the findings set out here.

Protein sequences, listed by entry. Tags and fused reporters are not part of them.
UniProt P13864: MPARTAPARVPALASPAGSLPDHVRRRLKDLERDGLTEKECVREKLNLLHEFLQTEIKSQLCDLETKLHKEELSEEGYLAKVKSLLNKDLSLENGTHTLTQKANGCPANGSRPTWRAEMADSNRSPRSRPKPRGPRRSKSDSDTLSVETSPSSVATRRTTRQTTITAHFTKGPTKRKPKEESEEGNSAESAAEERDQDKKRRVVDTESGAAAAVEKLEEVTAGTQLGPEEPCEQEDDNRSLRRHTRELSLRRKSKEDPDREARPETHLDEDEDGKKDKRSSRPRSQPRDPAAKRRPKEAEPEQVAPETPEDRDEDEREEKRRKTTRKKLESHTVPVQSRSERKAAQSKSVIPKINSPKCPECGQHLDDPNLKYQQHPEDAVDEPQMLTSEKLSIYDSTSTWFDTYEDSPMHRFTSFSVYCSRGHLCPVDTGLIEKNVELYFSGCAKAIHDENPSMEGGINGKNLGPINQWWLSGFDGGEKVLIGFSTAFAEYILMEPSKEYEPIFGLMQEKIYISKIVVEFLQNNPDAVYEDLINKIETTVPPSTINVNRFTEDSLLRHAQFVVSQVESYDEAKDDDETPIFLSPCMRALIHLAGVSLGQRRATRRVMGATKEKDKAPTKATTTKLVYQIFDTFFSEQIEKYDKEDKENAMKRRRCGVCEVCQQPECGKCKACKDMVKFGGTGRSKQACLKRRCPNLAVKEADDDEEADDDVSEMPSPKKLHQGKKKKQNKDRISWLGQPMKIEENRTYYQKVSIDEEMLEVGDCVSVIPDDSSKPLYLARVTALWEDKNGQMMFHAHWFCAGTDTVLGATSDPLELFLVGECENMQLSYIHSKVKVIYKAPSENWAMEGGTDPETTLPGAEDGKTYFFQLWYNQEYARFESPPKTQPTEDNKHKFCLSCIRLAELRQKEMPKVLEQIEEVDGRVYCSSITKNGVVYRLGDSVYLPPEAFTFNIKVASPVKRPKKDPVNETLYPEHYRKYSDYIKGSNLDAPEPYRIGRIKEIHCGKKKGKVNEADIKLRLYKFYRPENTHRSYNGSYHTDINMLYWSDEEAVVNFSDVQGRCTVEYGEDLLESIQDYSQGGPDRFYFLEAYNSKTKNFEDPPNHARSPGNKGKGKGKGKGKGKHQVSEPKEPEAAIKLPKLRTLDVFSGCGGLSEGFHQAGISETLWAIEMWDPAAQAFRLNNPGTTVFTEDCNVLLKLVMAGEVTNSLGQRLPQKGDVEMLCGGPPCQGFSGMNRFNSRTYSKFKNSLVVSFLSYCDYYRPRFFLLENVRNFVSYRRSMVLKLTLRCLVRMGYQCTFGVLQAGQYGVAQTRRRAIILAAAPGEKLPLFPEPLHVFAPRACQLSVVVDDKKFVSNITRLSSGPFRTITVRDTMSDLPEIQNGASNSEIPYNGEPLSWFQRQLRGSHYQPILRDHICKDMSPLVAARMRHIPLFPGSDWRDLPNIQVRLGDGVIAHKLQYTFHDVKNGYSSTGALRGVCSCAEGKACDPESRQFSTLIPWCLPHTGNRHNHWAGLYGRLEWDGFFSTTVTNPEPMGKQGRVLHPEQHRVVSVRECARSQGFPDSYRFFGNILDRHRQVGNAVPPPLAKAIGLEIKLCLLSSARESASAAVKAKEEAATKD

Results are given in words; binding and its absence hold for the method and conditions named. In cells and extracts the contact can be indirect. Some entries that bind do so weakly or less than the wild type. For some of these results: Where a sequence is shown, tags or fusion partners need not be part of it.

For assay [1], the target named is FLAG-c-myc epitope-tagged DNMT1 (DNA methyltransferase 1) from Dnmt1^Tag/+ ES cells (mouse (endogenous in ES cells)) (UniProt P13864). The assay can be described thus: co-IP; anti-FLAG M2 magnetic beads on sonicated ES cell lysates (20 mM Tris-HCl pH 7.4, 200 mM NaCl, 2.5 mM MgCl2, 0.05% Tween-20), then western blot. (In western blotting, separated proteins are transferred to a membrane and probed.)

For assay [2], the target named is T1, epitope-tagged UHRF1 from Uhrf1^Tag/+ ES cells (mouse (endogenous in ES cells)) (UniProt Q8VDF2).
T1 sequence: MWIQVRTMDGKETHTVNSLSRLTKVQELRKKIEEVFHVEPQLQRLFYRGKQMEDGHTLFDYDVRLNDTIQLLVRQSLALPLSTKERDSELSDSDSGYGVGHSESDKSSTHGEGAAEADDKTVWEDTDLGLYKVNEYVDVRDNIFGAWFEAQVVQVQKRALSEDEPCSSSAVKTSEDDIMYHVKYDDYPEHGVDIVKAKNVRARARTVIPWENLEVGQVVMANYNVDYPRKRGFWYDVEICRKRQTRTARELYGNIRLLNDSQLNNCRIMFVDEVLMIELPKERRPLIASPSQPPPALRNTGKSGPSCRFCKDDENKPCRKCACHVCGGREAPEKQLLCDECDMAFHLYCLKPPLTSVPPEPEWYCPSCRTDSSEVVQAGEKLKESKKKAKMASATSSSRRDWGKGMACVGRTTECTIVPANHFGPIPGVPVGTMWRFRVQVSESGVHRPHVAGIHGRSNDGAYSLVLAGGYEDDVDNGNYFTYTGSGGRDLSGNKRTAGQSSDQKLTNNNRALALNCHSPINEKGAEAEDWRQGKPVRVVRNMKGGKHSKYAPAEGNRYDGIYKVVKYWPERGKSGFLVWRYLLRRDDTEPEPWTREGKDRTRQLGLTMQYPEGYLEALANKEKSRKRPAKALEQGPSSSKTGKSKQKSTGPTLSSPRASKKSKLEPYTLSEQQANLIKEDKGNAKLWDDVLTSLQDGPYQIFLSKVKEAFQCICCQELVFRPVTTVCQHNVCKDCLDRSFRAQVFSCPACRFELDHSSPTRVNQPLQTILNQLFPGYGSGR
The assay is described as above.

For assay [3], the target named is epitope-tagged DNMT3B from Dnmt3B^Tag/+ ES cells (mouse (endogenous in ES cells)) (UniProt O88509). The description is as above.
In assay [4] the target is FLAG-c-myc epitope-tagged DNMT1 (DNA methyltransferase 1) from Dnmt1^Tag/+ ES cells (mouse (endogenous in ES cells)) (UniProt P13864). The assay can be described thus: co-IP; nuclear extracts of Dnmt1^Tag/+ ES cells prepared with an engineered universal nuclease that digested both DNA and RNA.

B1: DROSHA (Class 2 RNase III enzyme, Microprocessor component) (enzyme, UniProt Q5HZJ0 1-1373)
chain: MQGNTCHRMSYHPGRGCPRGRGGHGARPSAPAFRPQNLRLLHPQQPPAQYQYEPPSAPSSSYSNSQAPSFMPPRPDFVPYPPPAAPSAQGPLPPCPVRPPYPNHQMRHPFPVPPCFPPMPPPMPCPNNPPASGAPPGQGTFPFMVPPPSMPHPPPPPVMPQQVNYQYPPGYSHSFPPPGFNSYQNNSSSFPPSANSSSTPHFRHLPPYSLPKAQNERRSPERLKHYDDHRHRDHSHGRGERHRSLERRERGRSPERRRPESRYRSDYDRGRTPPPRHRSYERSRERDRERHRHREARRSPSLERSYKKEYKRSGRSYALPVAPEPAGCTPELPGEMIKTTESWAPPPENVNHRSPSREKKRARWEEEKDRWSDSQGSGKEKNYTSIKEKEAEEVPPEKTEEEEEELLKPVWIRCTHSESYYSSDPMDQVGDSTVVGTSRLRDLYDKFEEELGNRQEKAKAARPPWEPPKTKLDEDLESSSESECETDDDSTCSSSSDSEVFDVIAEIKRKKAHPDRLHDELWYNDPGQMNDGPLCKCSAKARRTGIRHSIYPGEEAIKPCRPMTNNAGRLFHYRITVSPPTNFLTDRPTVIEYDDHEYIFEGFSMFAHAPLTNIPLCKVIRFNIDYTIHFIEEMMPENFCVKGLELFSLFLFRDILELYDWNLKGPLFEDSPPCCPRFHFMPRFVRFLPDGGKEVLSMHQILLYLLRCSKALVPEEEIANMLQWEELEWQKYAEECKGMIVTNPGTKPSSVRIDQLDREQFNPEVITFPIIVHFGIRPAQLSYAGDPQYQKLWKSYVKLRHLLANSPKVKQTDKQKLAQREEALQKIRQKNTMRREVTVELSSQGFWKTGIRSDVCQHAMMLPVLTHHIRYHQCLMHLDKLIGYTFQDRCLLQLAMTHPSHHLNFGMNPDHARNSLSNCGIRQPKYGDRKVHHMHMRKKGINTLINIMSRLGQDDPTPSRINHNERLEFLGDAVVEFLTSVHLYYLFPSLEEGGLATYRTAIVQNQHLAMLAKKLELDRFMLYAHGPDLCRESDLRHAMANCFEALIGAVYLEGSLEEAKQLFGRLLFNDPDLREVWLNYPLHPLQLQEPNTDRQLIETSPVLQKLTEFEEAIGVIFTHVRLLARAFTLRTVGFNHLTLGHNQRMEFLGDSIMQLVATEYLFIHFPDHHEGHLTLLRSSLVNNRTQAKVAEELGMQEYAITNDKTKRPVALRTKTLADLLESFIAALYIDKDLEYVHTFMNVCFFPRLKEFILNQDWNDPKSQLQQCCLTLRTEGKEPDIPLYKTLQTVGPSHARTYTVAVYFKGERIGCGKGPSIQQAEMGAAMDALEKYNFPQMAHQKRFIERKYRQELKEMRWEREHQEREPEEAEDIKK
For the molecule B1, the binding entry is “binds” in assay [1], “no binding” in assay [2], “no binding” in assay [3] and “binds” in assay [4].
